Source: publication PMC5421643
No constants are given. Whether binding was seen depends on the method and setting. Blank lines part the entries; values can stand above or below the binder they belong to.

Assays:
[1] = biological target: ECD(1–534), deletion fragment of human Ecdysoneless protein (human) (UniProt O95905); assay: dynamic light scattering; purified fragment after Superdex75 into 20 mM HEPES pH 7.5, 250 mM NaCl, 5 mM β-mercaptoethanol; DynaPro MX/S; self-association tested; both purified
[2] = biological target: ECD(1–432), deletion fragment of human Ecdysoneless protein (human) (UniProt O95905); assay: as above

binding [1]: no binding
B1: ECD(1–534), deletion fragment of human Ecdysoneless protein (domain or fragment, UniProt O95905 1-534)
chain: MEETMKLATMEDTVEYCLFLIPDESRDSDKHKEILQKYIERIITRFAPMLVPYIWQNQPFNLKYKPGKGGVPAHMFGVTKFGDNIEDEWFIVYVIKQITKEFPELVARIEDNDGEFLLIEAADFLPKWLDPENSTNRVFFCHGELCIIPAPRKSGAESWLPTTPPTIPQALNIITAHSEKILASESIRAAVNRRIRGYPEKIQASLHRAHCFLPAGIVAVLKQRPRLVAAAVQAFYLRDPIDLRACRVFKTFLPETRIMTSVTFTKCLYAQLVQQRFVPDRRSGYRLPPPSDPQYRAHELGMKLAHGFEILCSKCSPHFSDCKKSLVTASPLWASFLESLKKNDYFKGLIEGSAQYRERLEMAENYFQLSVDWPESSLAMSPGEEILTLLQTIPFDIEDLKKEAANLPPEDDDQWLDLSPDQLDQLLQEAVGKKESESVSKEEKEQNYDLTEVSESMKAFISKVSTHKGAELPREPSEAPITFDADSFLNYFDKILGPRPNESDSDDLDDEDFECLDSDDDLDFETHEPGEEAS

binding [2]: no binding
B2: ECD(1–432), deletion fragment of human Ecdysoneless protein (domain or fragment, UniProt O95905 1-432)
chain: MEETMKLATMEDTVEYCLFLIPDESRDSDKHKEILQKYIERIITRFAPMLVPYIWQNQPFNLKYKPGKGGVPAHMFGVTKFGDNIEDEWFIVYVIKQITKEFPELVARIEDNDGEFLLIEAADFLPKWLDPENSTNRVFFCHGELCIIPAPRKSGAESWLPTTPPTIPQALNIITAHSEKILASESIRAAVNRRIRGYPEKIQASLHRAHCFLPAGIVAVLKQRPRLVAAAVQAFYLRDPIDLRACRVFKTFLPETRIMTSVTFTKCLYAQLVQQRFVPDRRSGYRLPPPSDPQYRAHELGMKLAHGFEILCSKCSPHFSDCKKSLVTASPLWASFLESLKKNDYFKGLIEGSAQYRERLEMAENYFQLSVDWPESSLAMSPGEEILTLLQTIPFDIEDLKKEAANLPPEDDDQWLDLSPDQLDQLLQEAVG
